Test results from patent US20060121180A1, “Metallic structures incorporating bioactive materials and methods for creating the same” (Medlogics Device Corporation, priority 2001, published 2006).
At least one compound was matched to its structure with a doubt left.

How the values were obtained:
Format in all cases: physicochemical
[1] = Optical absorbance of elution bath from coated 316L stainless steel sample in 0.9% saline; details: 1 cm2 316L stainless steel sample
Source text: Table 3 depicts several experiments following the general procedures outlined in example 1, each with one time point and for a new bioactive material. M is the difference in absorbance between an elution bath from the sample containing the respective bioactive material and the absorbance from a sample with pure coating (i.e. control). In this instance, a 1 cm2 medical grade 316L stainless steel sample was coated using the above mentioned process.
M refers to the absorbance difference between coated with bioactive material and coated without bioactive material.

[2] = Drug elution from coated stents into physiologic saline solution (spectrophotometric assay); details: Bx Velocity (316L) and Smart (nitinol) stents with Ni-P coating, physiologic saline changed daily (FIGS. 6 and 7)
Source text: Coated stents were formed using the same basic electroless deposition procedure in Example 1. However, in this example, instead of foil substrates, Johnson and Johnson Bx velocity stents (stainless steel) and Johnson and Johnson Smart stents (nitinol) were used as substrates. Bioactive composite structures in the form of layers were formed on the stents.
The amounts on the y-axis of the graphs represent the amount of bioactive material remaining on the stent after elution into a physiologic saline solution.
A similar anodization process as was used in the stent examples as was again applied to the foil substrates. After coating, the coated stent was placed in a physiologic saline solution and the solution changed daily. On the indicated days, the stent coatings were anodized. The amount of bioactive material released in each case was determined using a spectrophotometric assay.

[3] = Weight proportion of bioactive material to electrolessly deposited Ni-P matrix (anodic corrosion of coating, spectrophotometer)

Compound: CO[C@H]1C[C@@H]2CC[C@@H](C)[C@@](O)(O2)C(=O)C(=O)N2CCCC[C@H]2C(=O)O[C@H]([C@H](C)C[C@@H]2CC[C@@H](O)[C@H](OC)C2)CC(=O)[C@H](C)/C=C(\C)[C@@H](O)[C@@H](OC)C(=O)[C@H](C)C[C@H](C)/C=C/C=C/C=C/1C [Rapamycin, rapamycin]
- ΔA (absorbance difference, coated with vs without bioactive material) ([1]; Time = 0, immediately after deposition): 0
- ΔA (absorbance difference, coated with vs without bioactive material) ([1]; after seven days in 0.9% saline solution, characteristic absorbance wavelength in parentheses): 1.85 (274 nm)

Compound: CN(C)[C@@H]1C(O)=C(C(N)=O)C(=O)[C@@]2(O)C(O)=C3C(=O)c4c(O)cccc4[C@@](C)(O)[C@H]3C[C@@H]12 [Tetracycline, tetracycline]
- time over which appreciable amounts were released [2]: 40 days
- W/W concentration of bioactive material to Deposited Ni-P Matrix ([3]; 316 L Stainless Steel foil substrate): 0.5 mg/4 mg W/W
- W/W concentration of bioactive material to Deposited Ni-P Matrix ([3]; Nitinol foil substrate): 0.3 mg/4 mg W/W
